Here are results for 33 compounds from the supplement of paper PMC4635364.

Counter-ions that a name gives are not always drawn. Some of the results follow. This data set is noisy: repeats of one test often differ as much as different tests do.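 ReNCell VM, a human fetal ventral-midbrain neural progenitor line, was differentiated without mitogens. Blinded raters scored images stained for doublecortin (early neurons) or tyrosine hydroxylase (dopaminergic neurons) against untreated wells (0 = no change). Scores were averaged across repeats and both raters, and compounds averaging 2 or more were selected as hits for retesting.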

One assay has as its system ReNCell VM. Kind of assay: dopaminergic neuron differentiation score (TH+ cell fraction vs untreated, manual image score) (score (0 to 3)); higher = more TH+ dopaminergic neuron differentiation. Particulars: library: LOPAC; 2 uM; 4 weeks; BDNF 10 ng/ml + GDNF 10 ng/ml.
In the case of `CCN(CC)CCCC(C)Nc1ccnc2cc(Cl)ccc12` (centres undefined) [Chloroquine diphosphate], the “dopaminergic neuron differentiation score” value is inactive: 0.
The same measure, in the same setting: the figure for `CN(C)CCCO[C@@H]1[C@H]2OC(C)(C)O[C@H]2O[C@@H]1[C@H](O)CO` [Amiprilose hydrochloride] is inactive: 1.
Take `Oc1cc2c(cc1O)CN(C(=S)NCCc1ccc(Cl)cc1)CCC2` [Capsazepine]: the “dopaminergic neuron differentiation score” value is inactive: 0.
As to `CC(COc1ccccc1)N(CCCl)Cc1ccccc1` (centres undefined) [Phenoxybenzamine hydrochloride], the “dopaminergic neuron differentiation score” value is inactive: 0.
On the same count and under the same terms, the figure for `CC(=O)NNC(=O)N1Cc2ccccc2Oc2ccc(Cl)cc21` is inactive: 0; for `CCCCCCCCCCCCCCCC(=O)NCCO` [Palmitoylethanolamide] it is inactive: 0.
For the compound `Nc1nc(N)c2nc(-c3ccccc3)c(N)nc2n1` [Triamterene], the “dopaminergic neuron differentiation score” value was inactive: 0.
For the compound `COc1cc2nc(N3CCN(C(=O)C4COc5ccccc5O4)CC3)nc(N)c2cc1OC` (centres undefined) [Doxazosin mesylate], the “dopaminergic neuron differentiation score” value is inactive: 0.
On to `O=C1Cc2c([nH]c3ccc(Br)cc23)-c2ccccc2N1` [Kenpaullone], for which the “dopaminergic neuron differentiation score” value is inactive: 0.
For the compound `Cc1ccc([N+](=O)[O-])cc1S(=O)(=O)N(C)C`, the “dopaminergic neuron differentiation score” value was inactive: 0.
On the same count and under the same terms, in the case of `COc1cc(Cc2cnc(N)nc2N)cc(OC)c1OC` [Trimethoprim] it was inactive: 0; in that of `OCCN1CCN(CCCN2c3ccccc3C=Cc3ccccc32)CC1` [Opipramol dihydrochloride], inactive: 0; in that of `CC(=O)[C@H]1CC[C@H]2[C@@H]3CCC4=CC(=O)CC[C@]4(C)[C@H]3CC[C@]12C` [Progesterone], inactive: 0.
Still for that read-out and setting: the figure for `CC(=Cc1ccc(C(=O)O)cc1)c1ccc2c(c1)C(C)(C)CCC2(C)C` is inactive: 0; for `CC(C)(C(=O)O)c1ccc(C(O)CCCN2CCC(C(O)(c3ccccc3)c3ccccc3)CC2)cc1` (centres undefined) [Fexofenadine hydrochloride] it is inactive: 0.

The same assay, now with this note: library: Phytochemical; 2 uM; 4 weeks; BDNF 10 ng/ml + GDNF 10 ng/ml.
Consider `O=c1c(O)c(-c2ccc(O)cc2)oc2cc(O)cc(O)c12` [Kaempferol], for which the “dopaminergic neuron differentiation score” value is inactive: 0.
Still for that read-out and setting: the figure for `NC(=O)c1cccnc1` [Nicotinamide] is inactive: 0; for `CC[C@]12CCCN3CCc4c(n(c5ccccc45)C(=O)C1)[C@@H]32` [Eburnamonine (-)] it is inactive: 0; for `COc1c(O[C@@H]2O[C@H](CO)[C@@H](O)[C@H](O)[C@H]2O)cc2c(c1OC)-c1ccc(SC)c(=O)cc1[C@@H](NC(C)=O)CC2` [Thiocolchicoside] it is inactive: 0.

Still in this assay, the particulars now being: library: Prestwick; 2 uM; 4 weeks; BDNF 10 ng/ml + GDNF 10 ng/ml.
Consider `CC(N/C(=N\C#N)Nc1ccncc1)C(C)(C)C` (centres undefined) [Pinacidil], for which the “dopaminergic neuron differentiation score” value is inactive: 0.
In the case of `CN1CCN(CCCN2c3ccccc3Sc3ccc(Cl)cc32)CC1` [Prochlorperazine dimaleate], the “dopaminergic neuron differentiation score” value was active: 2.
Same read-out and setting: in the case of `CC(C)NCC(O)c1ccc(O)c(O)c1` (single isomer, unassigned; (-)) [(-)-Isoproterenol hydrochloride] it was inactive: 1; in that of `CC[N+](CC)(CC)CCOc1cccc(OCC[N+](CC)(CC)CC)c1OCC[N+](CC)(CC)CC` [Gallamine triethiodide], inactive: 0; in that of `CC(C(=O)O)c1ccc(-c2ccccc2)c(F)c1` (centres undefined) [Flurbiprofen], inactive: 0.
Still for that read-out and setting: in the case of `O=C(CCCN1CCC(O)(c2ccc(Cl)cc2)CC1)c1ccc(F)cc1` [Haloperidol] it was inactive: 0.
Still for that read-out and setting: in the case of `NC(=O)c1cccnc1` [Nicotinamide] it was inactive: 0; in that of `CC(CCc1ccccc1)NCC(O)c1ccc(O)c(C(N)=O)c1` (centres undefined) [Labetalol hydrochloride], inactive: 0; in that of `Cc1cnc(C(=O)NCCc2ccc(S(=O)(=O)NC(=O)NC3CCCCC3)cc2)cn1` [Glipizide], inactive: 0.
`O=C(O)/C=C/c1ccc(Cn2ccnc2)cc1` [Ozagrel hydrochloride]: the “dopaminergic neuron differentiation score” value is inactive: 0.
Regarding `CCN(CC)CCCC(C)Nc1ccnc2cc(Cl)ccc12` (centres undefined) [Chloroquine diphosphate], the “dopaminergic neuron differentiation score” value is inactive: 0.
On the same count and under the same terms, the figure for `CCOc1ccccc1OC(c1ccccc1)C1CNCCO1` (centres undefined) [Reboxetine mesylate] is inactive: 0; for `CN(C)CCCO[C@@H]1[C@H]2OC(C)(C)O[C@H]2O[C@@H]1[C@H](O)CO` [Amiprilose hydrochloride] it is inactive: 0.
`CC[C@]12CCCN3CCc4c(n(c5ccccc45)C(=O)C1)[C@@H]32` [Eburnamonine (-)]: the “dopaminergic neuron differentiation score” value was inactive: 0.
Still for that read-out and setting: in the case of `CC(COc1ccccc1)N(CCCl)Cc1ccccc1` (centres undefined) [Phenoxybenzamine hydrochloride] it was inactive: 0; in that of `O=C1c2ccccc2S(=O)(=O)N1CCCCN1CCN(c2ncccn2)CC1` [Ipsapirone], inactive: 0.
On the same count and under the same terms, the figure for `Nc1nc(N)c2nc(-c3ccccc3)c(N)nc2n1` [Triamterene] is inactive: 0; for `COc1cc2nc(N3CCN(C(=O)C4COc5ccccc5O4)CC3)nc(N)c2cc1OC` (centres undefined) [Doxazosin mesylate] it is inactive: 0; for `COc1cc(Cc2cnc(N)nc2N)cc(OC)c1OC` [Trimethoprim] it is inactive: 0.
As for `CN1CC2c3ccccc3Oc3ccc(Cl)cc3C2C1` (centres undefined) [Asenapine maleate], the “dopaminergic neuron differentiation score” value is inactive: 0.
Same read-out and setting: the figure for `CC[C@H](C)C(=O)O[C@H]1C[C@@H](C)C=C2C=C[C@H](C)[C@H](CC[C@@H]3C[C@@H](O)CC(=O)O3)[C@H]21` [Lovastatin] is inactive: 1; for `OCCN1CCN(CCCN2c3ccccc3C=Cc3ccccc32)CC1` [Opipramol dihydrochloride] it is inactive: 0.
The same measure, in the same setting: the figure for `CC(=O)[C@H]1CC[C@H]2[C@@H]3CCC4=CC(=O)CC[C@]4(C)[C@H]3CC[C@]12C` [Progesterone] is inactive: 0; for `CCN1CCC[C@H]1CNC(=O)c1c(O)c(Cl)cc(Cl)c1OC` [Raclopride] it is inactive: 0; for `COc1c(O[C@@H]2O[C@H](CO)[C@@H](O)[C@H](O)[C@H]2O)cc2c(c1OC)-c1ccc(SC)c(=O)cc1[C@@H](NC(C)=O)CC2` [Thiocolchicoside] it is inactive: 0.
